Laboratory results: article PMC8119208 (JCI Insight, 2021)
Results are given in words; binding and its absence hold for the method and conditions named. For some assays here: Binding seen in cells or lysates may run through a third protein. Some results given as binding are weak or reduced against the parent protein; the word gives no strength. For some assays here: Tags and fused reporters may be left off the sequences shown.

What was measured:
[1] = target: PD-L1 (programmed death ligand 1), exogenous, expressed in HEK293T cells (human) (UniProt Q9NZQ7); test: co-IP; HEK293T cells transfected with PD-L1 and HA-tagged PTP1B for 48 hours; immunoprecipitation followed by immunoblotting
[2] = target: PD-L1 (programmed death ligand 1), exogenous, expressed in HEK293T cells (human) (UniProt Q9NZQ7); test: co-IP; PD-L1 overexpressed in HEK293T immunoprecipitated by PD-L1 antibody; endogenous partners seen by immunoblotting
[3] = target: endogenous PD-L1 of MDA-MB-231 cells (human (endogenous in MDA-MB-231)) (UniProt Q9NZQ7); test: co-IP; endogenous proteins in MDA-MB-231 cells; endogenous PD-L1 as bait
[4] = target: T1, GST-fused PTP1B (amino acids 1-321) (UniProt P18031); test: pull-down; GST pull-down with purified proteins from E. coli: His-PDL1-CT / MBP-PDL1-CT (0.5 μg) and 0.5 μg GST or GST-fusion proteins; both purified
T1 sequence: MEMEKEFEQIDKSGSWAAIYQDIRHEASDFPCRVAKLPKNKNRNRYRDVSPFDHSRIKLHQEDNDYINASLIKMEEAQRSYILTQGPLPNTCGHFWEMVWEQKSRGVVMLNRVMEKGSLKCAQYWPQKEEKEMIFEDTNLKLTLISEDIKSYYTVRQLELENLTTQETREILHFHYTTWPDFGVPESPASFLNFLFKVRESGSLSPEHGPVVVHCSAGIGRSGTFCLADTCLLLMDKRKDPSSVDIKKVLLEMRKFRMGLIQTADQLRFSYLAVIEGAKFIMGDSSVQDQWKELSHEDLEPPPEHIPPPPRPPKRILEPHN

[5] = target: T2, GST-fused PTP1B (amino acids 1-277) (UniProt P18031); test: as above
T2 sequence: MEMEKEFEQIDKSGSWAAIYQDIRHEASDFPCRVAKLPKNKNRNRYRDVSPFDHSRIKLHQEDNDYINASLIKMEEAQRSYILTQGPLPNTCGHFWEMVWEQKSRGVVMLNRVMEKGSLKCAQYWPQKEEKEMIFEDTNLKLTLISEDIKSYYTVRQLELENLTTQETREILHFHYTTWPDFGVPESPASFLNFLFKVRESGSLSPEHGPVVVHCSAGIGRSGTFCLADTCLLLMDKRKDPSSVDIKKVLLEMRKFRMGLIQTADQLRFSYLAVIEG

B1: HA-tagged PTP1B (enzyme, UniProt P18031 1-435)
chain: MEMEKEFEQIDKSGSWAAIYQDIRHEASDFPCRVAKLPKNKNRNRYRDVSPFDHSRIKLHQEDNDYINASLIKMEEAQRSYILTQGPLPNTCGHFWEMVWEQKSRGVVMLNRVMEKGSLKCAQYWPQKEEKEMIFEDTNLKLTLISEDIKSYYTVRQLELENLTTQETREILHFHYTTWPDFGVPESPASFLNFLFKVRESGSLSPEHGPVVVHCSAGIGRSGTFCLADTCLLLMDKRKDPSSVDIKKVLLEMRKFRMGLIQTADQLRFSYLAVIEGAKFIMGDSSVQDQWKELSHEDLEPPPEHIPPPPRPPKRILEPHNGKCREFFPNHQWVKEETQEDKDCPIKEEKGSPLNAAPYGIESMSQDTEVRSRVVGGSLRGAQAASPAKGEPSLPEKDEDHALSYWKPFLVNMCVATVLTAGAYLCYRFLFNSNT
- binding [1]: binds

B2: endogenous PTP1B of HEK293T cells (enzyme, UniProt P18031 1-435)
chain: MEMEKEFEQIDKSGSWAAIYQDIRHEASDFPCRVAKLPKNKNRNRYRDVSPFDHSRIKLHQEDNDYINASLIKMEEAQRSYILTQGPLPNTCGHFWEMVWEQKSRGVVMLNRVMEKGSLKCAQYWPQKEEKEMIFEDTNLKLTLISEDIKSYYTVRQLELENLTTQETREILHFHYTTWPDFGVPESPASFLNFLFKVRESGSLSPEHGPVVVHCSAGIGRSGTFCLADTCLLLMDKRKDPSSVDIKKVLLEMRKFRMGLIQTADQLRFSYLAVIEGAKFIMGDSSVQDQWKELSHEDLEPPPEHIPPPPRPPKRILEPHNGKCREFFPNHQWVKEETQEDKDCPIKEEKGSPLNAAPYGIESMSQDTEVRSRVVGGSLRGAQAASPAKGEPSLPEKDEDHALSYWKPFLVNMCVATVLTAGAYLCYRFLFNSNT
- binding [2]: binds

B3: endogenous PTP1B of MDA-MB-231 cells (enzyme, UniProt P18031 1-435)
chain: MEMEKEFEQIDKSGSWAAIYQDIRHEASDFPCRVAKLPKNKNRNRYRDVSPFDHSRIKLHQEDNDYINASLIKMEEAQRSYILTQGPLPNTCGHFWEMVWEQKSRGVVMLNRVMEKGSLKCAQYWPQKEEKEMIFEDTNLKLTLISEDIKSYYTVRQLELENLTTQETREILHFHYTTWPDFGVPESPASFLNFLFKVRESGSLSPEHGPVVVHCSAGIGRSGTFCLADTCLLLMDKRKDPSSVDIKKVLLEMRKFRMGLIQTADQLRFSYLAVIEGAKFIMGDSSVQDQWKELSHEDLEPPPEHIPPPPRPPKRILEPHNGKCREFFPNHQWVKEETQEDKDCPIKEEKGSPLNAAPYGIESMSQDTEVRSRVVGGSLRGAQAASPAKGEPSLPEKDEDHALSYWKPFLVNMCVATVLTAGAYLCYRFLFNSNT
- binding [3]: binds

B4: MBP-tagged PD-L1 cytoplasmic domain (domain or fragment, human, UniProt Q9NZQ7 262-290, looked up)
chain: RKGRMMDVKKCGIQDTNSKKQSDTHLEET
notes: PD-L1 cytoplasmic domain, human, amino acids 262-290, subcloned into pET-His6 (Addgene plasmid 29656; named in the acknowledgements as PET His6 MBP TEV LIC cloning vector); The results and legend call it MBP-PDL1-CT, the methods of the pull-down His-PDL1-CT; also called MBP-PDL1-CT; His-PDL1-CT; source: E. coli, purified (His resin)
- binding [4]: no binding (tested: 0.5 μg of each protein)
- binding [5]: no binding (tested: 0.5 μg of each protein)
